Compound in the experiment: Nc1ncnc2c1ncn2[C@@H]1O[C@H](COP(=O)(O)OP(=O)(O)NP(=O)(O)O)[C@@H](O)[C@H]1O [adenylyl imidodiphosphate]
The experiment can be described thus: NP40-soluble protein abundance relative to vehicle (solubility fold change) (ratio); higher = more soluble protein in presence of AMP-PNP. The method in brief: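 Jurkat crude lysate (Dounce-homogenised) was treated with eight concentrations from 0.1 to 10 mM for 10 min at room temperature, then 3 min at 37 °C. It was solubilised with 0.8% NP40 and benzonase (60 min, 4 °C) and ultracentrifuged, and the supernatant was TMT-labelled for LC-MS/MS. Intensities were vsn-normalised, and the value is the fold change against the NP40-processed vehicle per replicate, from three independent experiments.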

Chains of the proteins cited; added tags and fusions are not shown. Lines headed by an entry give the natural chain unless they say otherwise; changes in a name come on top.
UniProt Q9BU61: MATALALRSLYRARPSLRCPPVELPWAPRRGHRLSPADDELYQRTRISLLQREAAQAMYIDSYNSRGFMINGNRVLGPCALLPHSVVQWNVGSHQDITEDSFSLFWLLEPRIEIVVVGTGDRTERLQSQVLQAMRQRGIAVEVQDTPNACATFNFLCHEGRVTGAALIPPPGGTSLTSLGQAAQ
UniProt Q99653: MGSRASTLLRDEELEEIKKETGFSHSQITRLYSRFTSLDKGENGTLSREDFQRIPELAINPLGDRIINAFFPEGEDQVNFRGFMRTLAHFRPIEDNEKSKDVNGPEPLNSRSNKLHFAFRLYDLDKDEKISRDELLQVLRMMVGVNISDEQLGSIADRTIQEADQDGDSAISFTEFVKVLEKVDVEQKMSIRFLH
UniProt Q99961: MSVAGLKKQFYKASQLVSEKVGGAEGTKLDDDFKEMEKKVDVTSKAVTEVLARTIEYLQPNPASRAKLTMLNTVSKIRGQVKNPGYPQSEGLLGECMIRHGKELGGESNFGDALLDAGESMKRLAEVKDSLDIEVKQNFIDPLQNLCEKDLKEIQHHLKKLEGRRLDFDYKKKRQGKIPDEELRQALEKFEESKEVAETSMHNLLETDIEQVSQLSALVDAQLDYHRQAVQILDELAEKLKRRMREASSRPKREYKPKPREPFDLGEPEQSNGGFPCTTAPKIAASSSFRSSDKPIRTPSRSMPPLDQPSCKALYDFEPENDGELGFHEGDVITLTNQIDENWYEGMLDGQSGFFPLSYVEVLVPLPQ
UniProt Q99523, whole entry: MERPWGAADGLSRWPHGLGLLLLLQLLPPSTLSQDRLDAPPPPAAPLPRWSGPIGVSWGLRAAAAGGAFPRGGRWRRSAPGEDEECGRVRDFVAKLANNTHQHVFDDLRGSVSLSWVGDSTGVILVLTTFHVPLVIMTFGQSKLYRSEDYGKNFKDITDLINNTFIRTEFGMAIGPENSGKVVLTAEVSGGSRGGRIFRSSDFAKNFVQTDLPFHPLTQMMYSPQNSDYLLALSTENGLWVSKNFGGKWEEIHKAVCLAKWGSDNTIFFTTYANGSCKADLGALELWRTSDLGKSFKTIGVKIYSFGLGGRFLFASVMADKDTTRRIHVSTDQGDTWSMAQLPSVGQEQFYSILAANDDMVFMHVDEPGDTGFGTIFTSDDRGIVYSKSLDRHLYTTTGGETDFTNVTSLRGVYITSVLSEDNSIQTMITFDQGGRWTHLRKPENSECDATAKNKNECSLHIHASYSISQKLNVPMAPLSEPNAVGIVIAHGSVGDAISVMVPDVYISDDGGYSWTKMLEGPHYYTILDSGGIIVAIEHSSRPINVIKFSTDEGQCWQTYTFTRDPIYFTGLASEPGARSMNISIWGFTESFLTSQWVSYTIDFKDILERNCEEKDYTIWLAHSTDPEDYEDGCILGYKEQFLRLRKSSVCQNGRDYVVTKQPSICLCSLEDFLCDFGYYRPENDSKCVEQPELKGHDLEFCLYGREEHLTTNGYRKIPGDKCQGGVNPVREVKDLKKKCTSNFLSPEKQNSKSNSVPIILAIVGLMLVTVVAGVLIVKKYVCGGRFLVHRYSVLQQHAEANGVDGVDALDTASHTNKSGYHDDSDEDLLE
UniProt Q96SI9: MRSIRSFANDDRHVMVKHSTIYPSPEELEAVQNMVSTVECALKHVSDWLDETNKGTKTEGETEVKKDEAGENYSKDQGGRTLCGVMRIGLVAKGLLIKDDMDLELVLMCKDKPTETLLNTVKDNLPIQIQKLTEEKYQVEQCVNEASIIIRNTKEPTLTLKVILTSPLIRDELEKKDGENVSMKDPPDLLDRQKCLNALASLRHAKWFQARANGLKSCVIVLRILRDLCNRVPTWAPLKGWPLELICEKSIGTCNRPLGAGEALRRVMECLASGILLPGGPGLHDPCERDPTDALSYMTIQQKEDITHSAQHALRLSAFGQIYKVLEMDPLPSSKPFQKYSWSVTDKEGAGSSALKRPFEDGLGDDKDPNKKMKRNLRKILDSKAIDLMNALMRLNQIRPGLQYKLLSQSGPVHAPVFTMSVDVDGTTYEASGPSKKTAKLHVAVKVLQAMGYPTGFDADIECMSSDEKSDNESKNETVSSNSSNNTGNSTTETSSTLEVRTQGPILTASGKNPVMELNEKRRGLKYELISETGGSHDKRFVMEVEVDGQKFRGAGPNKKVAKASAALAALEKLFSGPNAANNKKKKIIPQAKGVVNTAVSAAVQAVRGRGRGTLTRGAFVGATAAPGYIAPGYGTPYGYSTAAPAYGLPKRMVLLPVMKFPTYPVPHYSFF
UniProt Q9BVK6: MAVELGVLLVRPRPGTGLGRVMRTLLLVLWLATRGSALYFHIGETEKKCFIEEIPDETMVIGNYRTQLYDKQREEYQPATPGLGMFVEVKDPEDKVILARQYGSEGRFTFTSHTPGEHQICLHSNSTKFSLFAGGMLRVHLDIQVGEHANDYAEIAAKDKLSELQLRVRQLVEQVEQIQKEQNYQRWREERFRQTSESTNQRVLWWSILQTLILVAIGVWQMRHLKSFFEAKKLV
UniProt Q96RP9: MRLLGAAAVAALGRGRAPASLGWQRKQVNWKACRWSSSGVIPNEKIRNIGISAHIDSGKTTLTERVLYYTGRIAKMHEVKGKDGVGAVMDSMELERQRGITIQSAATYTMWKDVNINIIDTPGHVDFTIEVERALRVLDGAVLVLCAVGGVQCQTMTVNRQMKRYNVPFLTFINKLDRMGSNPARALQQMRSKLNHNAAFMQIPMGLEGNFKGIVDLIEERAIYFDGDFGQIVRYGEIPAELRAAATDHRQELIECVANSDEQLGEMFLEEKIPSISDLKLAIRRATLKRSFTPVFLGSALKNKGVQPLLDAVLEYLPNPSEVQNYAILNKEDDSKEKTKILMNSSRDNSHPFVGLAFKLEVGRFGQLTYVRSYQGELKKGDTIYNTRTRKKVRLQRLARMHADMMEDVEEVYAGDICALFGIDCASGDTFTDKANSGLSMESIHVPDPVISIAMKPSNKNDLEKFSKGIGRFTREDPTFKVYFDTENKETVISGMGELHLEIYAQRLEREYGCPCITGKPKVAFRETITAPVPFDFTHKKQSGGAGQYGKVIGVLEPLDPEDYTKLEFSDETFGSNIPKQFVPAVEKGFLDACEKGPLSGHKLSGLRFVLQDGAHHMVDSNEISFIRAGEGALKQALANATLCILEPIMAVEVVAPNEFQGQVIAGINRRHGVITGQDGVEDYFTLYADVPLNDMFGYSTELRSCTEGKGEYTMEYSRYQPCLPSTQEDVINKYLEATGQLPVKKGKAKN
UniProt Q9BV44: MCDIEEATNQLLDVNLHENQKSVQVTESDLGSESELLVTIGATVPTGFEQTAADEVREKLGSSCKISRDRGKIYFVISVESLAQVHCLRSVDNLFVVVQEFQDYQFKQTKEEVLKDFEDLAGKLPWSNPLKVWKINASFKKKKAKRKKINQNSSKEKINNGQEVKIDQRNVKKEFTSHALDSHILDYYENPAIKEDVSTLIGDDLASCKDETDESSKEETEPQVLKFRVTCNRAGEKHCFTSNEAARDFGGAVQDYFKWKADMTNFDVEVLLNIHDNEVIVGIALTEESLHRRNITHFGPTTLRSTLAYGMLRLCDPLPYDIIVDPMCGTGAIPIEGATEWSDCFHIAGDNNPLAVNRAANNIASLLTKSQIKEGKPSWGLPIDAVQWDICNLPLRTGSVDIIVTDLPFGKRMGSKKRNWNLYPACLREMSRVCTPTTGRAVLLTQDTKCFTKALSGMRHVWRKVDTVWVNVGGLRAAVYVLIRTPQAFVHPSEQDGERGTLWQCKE
UniProt Q9BRR8: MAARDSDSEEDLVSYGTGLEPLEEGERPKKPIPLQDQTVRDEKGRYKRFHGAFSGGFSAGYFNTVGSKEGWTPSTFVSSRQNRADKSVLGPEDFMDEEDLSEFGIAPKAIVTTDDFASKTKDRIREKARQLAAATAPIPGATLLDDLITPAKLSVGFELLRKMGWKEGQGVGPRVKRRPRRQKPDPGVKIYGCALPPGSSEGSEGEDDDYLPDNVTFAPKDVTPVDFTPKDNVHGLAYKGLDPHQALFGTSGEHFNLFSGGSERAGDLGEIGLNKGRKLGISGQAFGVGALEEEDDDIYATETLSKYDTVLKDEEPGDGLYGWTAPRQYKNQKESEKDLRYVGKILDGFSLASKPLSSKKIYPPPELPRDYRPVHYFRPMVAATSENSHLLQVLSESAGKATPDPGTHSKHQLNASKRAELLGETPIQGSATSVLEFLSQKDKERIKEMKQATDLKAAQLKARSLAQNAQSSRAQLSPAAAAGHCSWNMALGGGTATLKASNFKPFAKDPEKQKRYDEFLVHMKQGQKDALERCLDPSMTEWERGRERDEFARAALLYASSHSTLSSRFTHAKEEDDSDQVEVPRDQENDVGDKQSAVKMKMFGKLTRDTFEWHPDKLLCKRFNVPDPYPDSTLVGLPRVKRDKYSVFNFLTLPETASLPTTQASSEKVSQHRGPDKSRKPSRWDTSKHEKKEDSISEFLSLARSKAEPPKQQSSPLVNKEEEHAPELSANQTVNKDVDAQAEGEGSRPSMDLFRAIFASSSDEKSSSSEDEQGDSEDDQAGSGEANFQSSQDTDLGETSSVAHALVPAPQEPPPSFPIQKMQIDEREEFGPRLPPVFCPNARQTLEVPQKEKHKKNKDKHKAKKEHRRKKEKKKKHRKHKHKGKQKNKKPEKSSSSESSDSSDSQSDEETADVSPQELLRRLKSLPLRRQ
UniProt Q9BTZ2: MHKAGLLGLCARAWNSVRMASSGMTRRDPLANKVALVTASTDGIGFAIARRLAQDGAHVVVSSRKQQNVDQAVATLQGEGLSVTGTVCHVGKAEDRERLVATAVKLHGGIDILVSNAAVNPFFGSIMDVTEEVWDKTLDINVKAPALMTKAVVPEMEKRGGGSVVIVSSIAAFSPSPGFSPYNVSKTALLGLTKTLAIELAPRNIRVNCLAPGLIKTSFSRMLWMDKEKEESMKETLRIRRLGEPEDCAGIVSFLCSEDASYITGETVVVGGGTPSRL
UniProt Q96RG2: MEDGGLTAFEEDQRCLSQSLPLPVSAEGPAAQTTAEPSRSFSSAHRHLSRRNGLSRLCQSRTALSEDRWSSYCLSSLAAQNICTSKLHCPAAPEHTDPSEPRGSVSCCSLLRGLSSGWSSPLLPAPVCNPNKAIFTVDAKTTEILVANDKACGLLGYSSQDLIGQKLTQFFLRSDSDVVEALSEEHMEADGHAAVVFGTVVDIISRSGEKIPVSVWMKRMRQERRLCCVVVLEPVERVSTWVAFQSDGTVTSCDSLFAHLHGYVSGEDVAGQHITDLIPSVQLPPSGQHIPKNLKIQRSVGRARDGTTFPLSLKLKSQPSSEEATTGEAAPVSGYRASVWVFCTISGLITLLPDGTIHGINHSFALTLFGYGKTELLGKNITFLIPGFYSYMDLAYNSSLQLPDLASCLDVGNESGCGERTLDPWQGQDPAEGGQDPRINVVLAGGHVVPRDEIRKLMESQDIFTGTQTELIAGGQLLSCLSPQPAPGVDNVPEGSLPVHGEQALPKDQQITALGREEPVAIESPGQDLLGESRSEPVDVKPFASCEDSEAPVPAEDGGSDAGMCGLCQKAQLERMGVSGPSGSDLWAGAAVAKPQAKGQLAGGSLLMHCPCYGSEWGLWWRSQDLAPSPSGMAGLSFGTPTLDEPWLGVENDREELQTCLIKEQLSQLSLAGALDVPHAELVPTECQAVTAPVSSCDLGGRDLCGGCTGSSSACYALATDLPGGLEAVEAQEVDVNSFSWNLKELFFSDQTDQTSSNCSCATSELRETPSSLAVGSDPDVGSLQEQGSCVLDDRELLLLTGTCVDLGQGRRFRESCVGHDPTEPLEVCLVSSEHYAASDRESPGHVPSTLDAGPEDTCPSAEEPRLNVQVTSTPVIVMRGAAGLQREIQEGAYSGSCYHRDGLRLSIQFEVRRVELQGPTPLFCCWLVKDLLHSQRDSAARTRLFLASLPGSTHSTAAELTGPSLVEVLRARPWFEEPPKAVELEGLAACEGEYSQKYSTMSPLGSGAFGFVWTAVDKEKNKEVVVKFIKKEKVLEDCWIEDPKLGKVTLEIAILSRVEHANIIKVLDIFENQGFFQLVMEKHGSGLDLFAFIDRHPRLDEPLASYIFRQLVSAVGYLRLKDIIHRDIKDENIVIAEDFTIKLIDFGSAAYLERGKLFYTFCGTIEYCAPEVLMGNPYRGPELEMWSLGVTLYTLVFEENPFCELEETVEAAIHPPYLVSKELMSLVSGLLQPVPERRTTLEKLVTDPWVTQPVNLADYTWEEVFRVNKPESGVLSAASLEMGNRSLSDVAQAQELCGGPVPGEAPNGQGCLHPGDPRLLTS
UniProt Q9BQ15: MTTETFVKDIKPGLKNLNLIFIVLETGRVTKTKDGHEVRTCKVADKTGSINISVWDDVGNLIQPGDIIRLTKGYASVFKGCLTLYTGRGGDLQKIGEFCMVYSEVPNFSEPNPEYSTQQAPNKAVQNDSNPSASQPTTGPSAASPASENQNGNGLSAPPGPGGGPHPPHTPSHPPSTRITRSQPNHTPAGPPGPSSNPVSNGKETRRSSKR

± gives the standard deviation of the averaged measurements. The list shows a part of the results, in another mix than the full data. Most values lie at the level of the controls, where differences are scatter.

For UniProt Q99767-2|Q99767, the NP40-soluble protein abundance stood at 0.992 ± 0.031 (concentration: 0.1mM) and 0.9901 ± 0.0021 (concentration: 0.5mM).

Take UniProt Q9BU61 and related entries: the NP40-soluble protein abundance reads like this: (concentration: 0.1mM) 1.02 ± 0.021; (concentration: 0.5mM) 0.993 ± 0.043.

In the case of MACROD1 (UniProt Q9BQ69), the NP40-soluble protein abundance is, setting by setting: (concentration: 0.1mM) 1 ± 0.052; (concentration: 0.5mM) 1.01 ± 0.036.

As for CPPED1 (UniProt Q9BRF8), the NP40-soluble protein abundance worked out at 1.04 ± 0.011 (concentration: 0.1mM) and 0.993 ± 0.057 (concentration: 0.5mM).

Regarding UniProt Q99653, the NP40-soluble protein abundance is, setting by setting: (concentration: 0.1mM) 0.984 ± 0.022; (concentration: 0.5mM) 1 ± 0.025.

For PELO (UniProt Q9BRX2), the NP40-soluble protein abundance was 0.991 ± 0.024 (concentration: 0.1mM) and 0.956 ± 0.033 (concentration: 0.5mM).

As to MRPS26 (UniProt Q9BYN8), the NP40-soluble protein abundance runs as follows: (concentration: 0.1mM) 1.02 ± 0.057; (concentration: 0.5mM) 1.09 ± 0.14.

Turning to DNAJC7 (UniProt Q99615), the NP40-soluble protein abundance came out at 0.988 ± 0.018 (concentration: 0.1mM) and 1.03 ± 0.031 (concentration: 0.5mM).

With PFDN5 (UniProt Q99471), the NP40-soluble protein abundance worked out at 1.02 ± 0.048 (concentration: 0.1mM) and 1.05 ± 0.094 (concentration: 0.5mM).

In the case of NCAPG (UniProt Q9BPX3), the NP40-soluble protein abundance (concentration: 0.1mM) came out at 0.981 ± 0.018 and the NP40-soluble protein abundance (concentration: 0.5mM) came to 0.974 ± 0.04.

For UniProt Q9BSI4 and related entries, the NP40-soluble protein abundance runs as follows: (concentration: 0.1mM) 1.03 ± 0.029; (concentration: 0.5mM) 1.03 ± 0.039.

Consider SH3GL1 (UniProt Q99961), for which the NP40-soluble protein abundance (concentration: 0.1mM) came out at 0.973 ± 0.034 and the NP40-soluble protein abundance (concentration: 0.5mM) turned out to be 1 ± 0.037.

With SORT1 (UniProt Q99523), the NP40-soluble protein abundance runs as follows: (concentration: 0.1mM) 0.98 ± 0.04; (concentration: 0.5mM) 0.996 ± 0.052.

On to UniProt Q9BPY3 and related entries, for which the NP40-soluble protein abundance (concentration: 0.1mM) worked out at 1.04 ± 0.058 and the NP40-soluble protein abundance (concentration: 0.5mM) came to 1.002 ± 0.0066.

ITPA (UniProt Q9BY32): the NP40-soluble protein abundance worked out at 1 ± 0.083 (concentration: 0.1mM) and 1.04 ± 0.081 (concentration: 0.5mM).

In the case of UniProt Q9BTY7, the NP40-soluble protein abundance was found to be 0.998 ± 0.044 (concentration: 0.1mM) and 0.979 ± 0.05 (concentration: 0.5mM).

For the target UniProt Q9BTE3 and related entries, the NP40-soluble protein abundance (concentration: 0.1mM) is 1.01 ± 0.033 and the NP40-soluble protein abundance (concentration: 0.5mM) turned out to be 0.984 ± 0.031.

Regarding STRBP (UniProt Q96SI9), the NP40-soluble protein abundance reads like this: (concentration: 0.1mM) 1.01 ± 0.033; (concentration: 0.5mM) 1.02 ± 0.047.

In the case of RANBP9 (UniProt Q96S59), the NP40-soluble protein abundance amounted to 0.974 ± 0.061 (concentration: 0.1mM) and 0.982 ± 0.039 (concentration: 0.5mM).

Consider TMED9 (UniProt Q9BVK6), for which the NP40-soluble protein abundance reads like this: (concentration: 0.1mM) 0.998 ± 0.024; (concentration: 0.5mM) 1.02 ± 0.037.

On to PNKP (UniProt Q96T60), for which the NP40-soluble protein abundance reads like this: (concentration: 0.1mM) 1.01 ± 0.035; (concentration: 0.5mM) 1.01 ± 0.0046.

In the case of MAK16 (UniProt Q9BXY0), the NP40-soluble protein abundance worked out at 0.989 ± 0.036 (concentration: 0.1mM) and 1.01 ± 0.011 (concentration: 0.5mM).

With UniProt Q9BTD8 and related entries, the NP40-soluble protein abundance is 1.03 ± 0.021 (concentration: 0.1mM) and 1.01 ± 0.029 (concentration: 0.5mM).

In the case of PRPF18 (UniProt Q99633), the NP40-soluble protein abundance runs as follows: (concentration: 0.1mM) 0.992 ± 0.023; (concentration: 0.5mM) 1 ± 0.018.

As to VRK1 (UniProt Q99986), the NP40-soluble protein abundance (concentration: 0.1mM) worked out at 1.03 ± 0.018 and the NP40-soluble protein abundance (concentration: 0.5mM) came out at 1.08 ± 0.053.

Take UniProt Q96RP9 and related entries: the NP40-soluble protein abundance runs as follows: (concentration: 0.1mM) 0.9869 ± 0.0078; (concentration: 0.5mM) 0.984 ± 0.03.

SMAD5 (UniProt Q99717): the NP40-soluble protein abundance runs as follows: (concentration: 0.1mM) 0.996 ± 0.046; (concentration: 0.5mM) 1.01 ± 0.026.

Take SDF2 (UniProt Q99470): the NP40-soluble protein abundance runs as follows: (concentration: 0.1mM) 0.97 ± 0.045; (concentration: 0.5mM) 0.975 ± 0.033.

With UniProt Q9BV29 and related entries, the NP40-soluble protein abundance is 0.9769 ± 0.0063 (concentration: 0.1mM) and 0.996 ± 0.018 (concentration: 0.5mM).

Take SH3GL2 (UniProt Q99962): the NP40-soluble protein abundance is 0.99 ± 0.028 (concentration: 0.1mM) and 1.02 ± 0.013 (concentration: 0.5mM).

With UniProt Q99549 and related entries, the NP40-soluble protein abundance by setting is: (concentration: 0.1mM) 0.966 ± 0.025; (concentration: 0.5mM) 1.01 ± 0.024.

Regarding THUMPD3 (UniProt Q9BV44), the NP40-soluble protein abundance is 0.953 ± 0.023 (concentration: 0.1mM) and 0.957 ± 0.015 (concentration: 0.5mM).

In the case of CCT7 (UniProt Q99832), the NP40-soluble protein abundance is 0.999 ± 0.037 (concentration: 0.1mM) and 0.998 ± 0.03 (concentration: 0.5mM).

For UniProt Q9BXP5-3|Q9BXP5-4, the NP40-soluble protein abundance by setting is: (concentration: 0.1mM) 1.04 ± 0.033; (concentration: 0.5mM) 1.06 ± 0.025.

Turning to TXNDC17 (UniProt Q9BRA2), the NP40-soluble protein abundance is, setting by setting: (concentration: 0.1mM) 0.992 ± 0.052; (concentration: 0.5mM) 0.982 ± 0.021.

As for UniProt Q9BTT0 and related entries, the NP40-soluble protein abundance runs as follows: (concentration: 0.1mM) 0.979 ± 0.016; (concentration: 0.5mM) 1.03 ± 0.029.

CNPY3 (UniProt Q9BT09): the NP40-soluble protein abundance is, setting by setting: (concentration: 0.1mM) 0.9844 ± 0.0082; (concentration: 0.5mM) 0.9911 ± 0.0097.

For UniProt Q9BUA3, the NP40-soluble protein abundance (concentration: 0.1mM) is 0.991 ± 0.019 and the NP40-soluble protein abundance (concentration: 0.5mM) was 0.981 ± 0.034.

For the target GPATCH1 (UniProt Q9BRR8), the NP40-soluble protein abundance is, setting by setting: (concentration: 0.1mM) 1.02 ± 0.058; (concentration: 0.5mM) 1.04 ± 0.031.

For “UniProt Q99490-2|F8VVT9 and related entries”, the NP40-soluble protein abundance worked out at 0.997 ± 0.011 (concentration: 0.1mM) and 0.999 ± 0.024 (concentration: 0.5mM).

On to C16orf70 (UniProt Q9BSU1), for which the NP40-soluble protein abundance is, setting by setting: (concentration: 0.1mM) 0.998 ± 0.022; (concentration: 0.5mM) 1.01 ± 0.05.

In the case of PIGS (UniProt Q96S52), the NP40-soluble protein abundance is 0.973 ± 0.031 (concentration: 0.1mM) and 0.97 ± 0.062 (concentration: 0.5mM).

For CARD11 (UniProt Q9BXL7), the NP40-soluble protein abundance (concentration: 0.1mM) worked out at 0.983 ± 0.016 and the NP40-soluble protein abundance (concentration: 0.5mM) came to 0.947 ± 0.04.

Regarding UniProt Q9BYX2 and related entries, the NP40-soluble protein abundance runs as follows: (concentration: 0.1mM) 0.999 ± 0.013; (concentration: 0.5mM) 0.981 ± 0.044.

As for UniProt Q96RQ3 and related entries, the NP40-soluble protein abundance by setting is: (concentration: 0.1mM) 1 ± 0.034; (concentration: 0.5mM) 0.967 ± 0.038.

Take DHRS4 (UniProt Q9BTZ2): the NP40-soluble protein abundance by setting is: (concentration: 0.1mM) 0.9854 ± 0.0067; (concentration: 0.5mM) 0.974 ± 0.037.

As to UniProt Q9BRT2 and related entries, the NP40-soluble protein abundance reads like this: (concentration: 0.1mM) 1.1 ± 0.048; (concentration: 0.5mM) 1.05 ± 0.034.

For TRIM56 (UniProt Q9BRZ2), the NP40-soluble protein abundance runs as follows: (concentration: 0.1mM) 0.979 ± 0.021; (concentration: 0.5mM) 0.977 ± 0.036.

Turning to UniProt Q9BXW7 and related entries, the NP40-soluble protein abundance is 1.05 ± 0.021 (concentration: 0.1mM) and 0.989 ± 0.073 (concentration: 0.5mM).

As for UniProt Q96RG2 and related entries, the NP40-soluble protein abundance by setting is: (concentration: 0.1mM) 0.994 ± 0.011; (concentration: 0.5mM) 0.98 ± 0.018.

Regarding HINT2 (UniProt Q9BX68), the NP40-soluble protein abundance reads like this: (concentration: 0.1mM) 0.99 ± 0.021; (concentration: 0.5mM) 1.02 ± 0.033.

On to BUD13 (UniProt Q9BRD0), for which the NP40-soluble protein abundance is, setting by setting: (concentration: 0.1mM) 1 ± 0.019; (concentration: 0.5mM) 0.993 ± 0.04.

As to EFHD1 (UniProt Q9BUP0), the NP40-soluble protein abundance reads like this: (concentration: 0.1mM) 0.972 ± 0.058; (concentration: 0.5mM) 0.987 ± 0.045.

Consider ADAT1 (UniProt Q9BUB4), for which the NP40-soluble protein abundance by setting is: (concentration: 0.1mM) 0.9875 ± 0.0082; (concentration: 0.5mM) 1.02 ± 0.019.

DOHH (UniProt Q9BU89): the NP40-soluble protein abundance was determined as 0.988 ± 0.019 (concentration: 0.1mM) and 1.01 ± 0.074 (concentration: 0.5mM).

Take BCL2L13 (UniProt Q9BXK5): the NP40-soluble protein abundance reads like this: (concentration: 0.1mM) 0.96 ± 0.018; (concentration: 0.5mM) 1 ± 0.059.

Consider UniProt Q99081 and related entries, for which the NP40-soluble protein abundance is, setting by setting: (concentration: 0.1mM) 0.992 ± 0.045; (concentration: 0.5mM) 1.01 ± 0.011.

Take PHF20 (UniProt Q9BVI0): the NP40-soluble protein abundance is, setting by setting: (concentration: 0.1mM) 1.03 ± 0.059; (concentration: 0.5mM) 1.02 ± 0.015.

As to NABP2 (UniProt Q9BQ15), the NP40-soluble protein abundance (concentration: 0.1mM) came to 1 ± 0.095 and the NP40-soluble protein abundance (concentration: 0.5mM) is 0.98 ± 0.047.

Turning to UniProt Q99871 and related entries, the NP40-soluble protein abundance (concentration: 0.1mM) came to 0.948 ± 0.015 and the NP40-soluble protein abundance (concentration: 0.5mM) worked out at 0.9717 ± 0.0088.

As to BACH2 (UniProt Q9BYV9), the NP40-soluble protein abundance came to 1.01 ± 0.022 (concentration: 0.1mM) and 1.02 ± 0.055 (concentration: 0.5mM).

These data come from the supplement of paper PMC6411743.
